At least one peptide structure holds a part that was inferred or is arguable (an end, a ring closure or a residue). Bridge positions count the residues as written; N and C are the ends. Ends that are not written are not given here.
Assays:
[1] = Fibrillation lag time on gentle agitation (thioflavin-T-positive aggregation); assay type: physicochemical
[2] = CD-monitored guanidine denaturation (thermodynamic stability); assay type: physicochemical; settings: for ΔGu, apparent change in free energy on denaturation in guanidine-HCl: CD-detected (222 nm) at 25° C., two-state model extrapolated to zero denaturant concentration; for Cmid, concentration of guanidine-HCl at which 50% of the protein is unfolded / m, slope of unfolding free energy ΔGu versus molar concentration of denaturant: CD-detected guanidine denaturation at 25° C.
[3] = Co2+-EDTA sequestration assay (speed of R6 cobalt hexamer disassembly); assay type: physicochemical; settings: R6 cobalt hexamers, 25° C., pH 7.4, absorbance 574 nm, EDTA in 10-fold molar excess
Type 1 IGF-I receptor = Type 1 IGF-I receptor (Homo sapiens, UniProt P08069); assay: Receptor-binding assay, Type 1 IGF-I receptor
[4] = tested on: male Sprague-Dawley rats rendered diabetic by streptozotocin; assay: Retention or loss of potency in diabetic rats after gentle agitation at 45° C.; assay type: in vivo, rat; settings: gentle agitation at 45° C. for 57 days, tested as a clear solution

The chains behind the UniProt entries cited, without tags or fusion partners. Residues count along the entry.
UniProt P08069, 741-1367 partner limits assumed: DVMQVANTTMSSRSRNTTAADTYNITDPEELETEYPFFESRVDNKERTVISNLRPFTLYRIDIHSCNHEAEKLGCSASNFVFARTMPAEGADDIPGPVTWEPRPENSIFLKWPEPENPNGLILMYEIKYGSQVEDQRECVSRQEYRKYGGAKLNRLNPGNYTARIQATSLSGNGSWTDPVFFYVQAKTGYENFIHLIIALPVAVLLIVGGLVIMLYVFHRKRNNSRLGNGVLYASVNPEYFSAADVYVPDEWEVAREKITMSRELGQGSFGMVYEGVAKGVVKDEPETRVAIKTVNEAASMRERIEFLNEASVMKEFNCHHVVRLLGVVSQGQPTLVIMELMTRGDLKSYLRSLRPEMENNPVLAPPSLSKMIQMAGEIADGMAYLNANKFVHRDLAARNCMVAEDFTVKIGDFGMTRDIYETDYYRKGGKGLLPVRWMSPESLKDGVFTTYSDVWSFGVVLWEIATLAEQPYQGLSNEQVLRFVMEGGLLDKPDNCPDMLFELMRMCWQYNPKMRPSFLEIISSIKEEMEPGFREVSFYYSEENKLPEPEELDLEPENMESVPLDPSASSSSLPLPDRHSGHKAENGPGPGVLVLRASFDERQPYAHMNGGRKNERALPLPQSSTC
UniProt P08069, 31-736 limits assumed: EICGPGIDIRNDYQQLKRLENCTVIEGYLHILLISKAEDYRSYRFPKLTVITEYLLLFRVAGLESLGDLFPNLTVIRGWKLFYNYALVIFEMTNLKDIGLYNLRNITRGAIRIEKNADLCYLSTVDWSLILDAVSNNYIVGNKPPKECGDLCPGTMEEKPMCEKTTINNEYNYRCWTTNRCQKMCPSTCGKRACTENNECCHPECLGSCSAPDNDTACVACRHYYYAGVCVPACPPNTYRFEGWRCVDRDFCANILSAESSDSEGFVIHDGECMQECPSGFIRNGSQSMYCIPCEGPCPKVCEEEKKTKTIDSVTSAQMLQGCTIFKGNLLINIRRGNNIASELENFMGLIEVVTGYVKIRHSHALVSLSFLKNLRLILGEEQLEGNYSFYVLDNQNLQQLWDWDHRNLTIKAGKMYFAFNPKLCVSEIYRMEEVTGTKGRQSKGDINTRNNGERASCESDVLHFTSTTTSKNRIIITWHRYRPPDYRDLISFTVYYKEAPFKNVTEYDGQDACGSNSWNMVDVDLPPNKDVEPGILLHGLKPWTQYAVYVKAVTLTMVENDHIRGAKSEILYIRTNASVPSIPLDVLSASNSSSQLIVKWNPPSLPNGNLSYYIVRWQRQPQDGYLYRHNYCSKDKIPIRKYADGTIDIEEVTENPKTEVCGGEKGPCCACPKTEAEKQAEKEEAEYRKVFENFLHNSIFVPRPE

## FVNQHLCGSHLVEALYLVCGERGFFYTPETEEGPRRGIVEQCCHSICSLEQLENYCN (disulfide 7-43, 19-56, 42-47) [SCI-57PE]
[1]; gentle agitation at 37° C.
  time refractory to fibrillation: at least 9 months
[1]; gently rocked at 45° C. in Tris-HCl formulation, U-100, triplicate, onset of thioflavin-T-positive aggregation
  fib. lag time: >9 mo
[2]
  ΔGu, apparent change in free energy on denaturation in guanidine-HCl: 4.6 ± 0.1 kcal/mol
  Cmid, concentration of guanidine-HCl at which 50% of the protein is unfolded: 5.7 ± 0.11 M
  m, slope of unfolding free energy ΔGu versus molar concentration of denaturant: 0.80 ± 0.02 kcal/mol/M
[3]
  time constant, fast phase of biphasic transition: 0.9 (±0.1) min
  time constant, slow phase of biphasic transition: 14.1(±0.1) min

## FVNQHLCGSHLVEALYLVCGERGFFYTDPTEEGPRRGIVEQCCHSICSLEQLENYCN (disulfide 7-43, 19-56, 42-47) [SCI-57DP]
[2]
  ΔGu, apparent change in free energy on denaturation in guanidine-HCl: 4.3 ± 0.1 kcal/mol
  Cmid, concentration of guanidine-HCl at which 50% of the protein is unfolded: 5.7 ± 0.13 M
  m, slope of unfolding free energy ΔGu versus molar concentration of denaturant: 0.74 ± 0.02 kcal/mol/M
Type 1 IGF-I receptor
  affinity for Type 1 IGF-I receptor relative to wild-type human insulin: at least fivefold lower
[4]
  activity in diabetic rats after agitation: maintained full activity
